Measurements as given in patent US20190350940A1, “PLATINUM COMPOUNDS, COMPOSITIONS, AND USES THEREOF” (priority 2015, published 2019).

Tested on: Calu-6 human NSCLC
Test: Calu-6 lung xenograft model
Type: in vivo, mouse
Conditions: Cisplatin 3 mg/kg
Description: The effect of Compound 8 was evaluated in the Calu-6 human NSCLC nude mouse (female Crl:NU(NCr)-Foxn1^nu) xenograft model.

## N.N.[Cl][Pt][Cl] [Cisplatin]
  Statistical Significance versus Vehicle (TGD): * (p < 0.05)
